Laboratory results as given in the supplement of paper PMC12823440, “Inhibitors supercharge kinase turnover through native proteolytic circuits” (Nature, 2025).
Counter-ions that a name gives are not always drawn. The list shows a part of the results. Hit calls seldom repeat between salt and free forms of one compound.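 Kinases, fused to nanoluciferase, were expressed in K562 cells; luminescence was measured every 4 h from 2 to 18 h as percent of control (DMSO = 100%, positive control = 0%). A time point is decreased if signal falls significantly (2 sigma). Hits were called by the authors by a rule that is not shown; the count of time points alone does not decide it.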

By UniProt entry, the sequences of proteins in these tests, tags left out. Where a name states a change or a piece, a line headed by the entry shows the natural chain unless it says otherwise.
UniProt P36888, whole entry: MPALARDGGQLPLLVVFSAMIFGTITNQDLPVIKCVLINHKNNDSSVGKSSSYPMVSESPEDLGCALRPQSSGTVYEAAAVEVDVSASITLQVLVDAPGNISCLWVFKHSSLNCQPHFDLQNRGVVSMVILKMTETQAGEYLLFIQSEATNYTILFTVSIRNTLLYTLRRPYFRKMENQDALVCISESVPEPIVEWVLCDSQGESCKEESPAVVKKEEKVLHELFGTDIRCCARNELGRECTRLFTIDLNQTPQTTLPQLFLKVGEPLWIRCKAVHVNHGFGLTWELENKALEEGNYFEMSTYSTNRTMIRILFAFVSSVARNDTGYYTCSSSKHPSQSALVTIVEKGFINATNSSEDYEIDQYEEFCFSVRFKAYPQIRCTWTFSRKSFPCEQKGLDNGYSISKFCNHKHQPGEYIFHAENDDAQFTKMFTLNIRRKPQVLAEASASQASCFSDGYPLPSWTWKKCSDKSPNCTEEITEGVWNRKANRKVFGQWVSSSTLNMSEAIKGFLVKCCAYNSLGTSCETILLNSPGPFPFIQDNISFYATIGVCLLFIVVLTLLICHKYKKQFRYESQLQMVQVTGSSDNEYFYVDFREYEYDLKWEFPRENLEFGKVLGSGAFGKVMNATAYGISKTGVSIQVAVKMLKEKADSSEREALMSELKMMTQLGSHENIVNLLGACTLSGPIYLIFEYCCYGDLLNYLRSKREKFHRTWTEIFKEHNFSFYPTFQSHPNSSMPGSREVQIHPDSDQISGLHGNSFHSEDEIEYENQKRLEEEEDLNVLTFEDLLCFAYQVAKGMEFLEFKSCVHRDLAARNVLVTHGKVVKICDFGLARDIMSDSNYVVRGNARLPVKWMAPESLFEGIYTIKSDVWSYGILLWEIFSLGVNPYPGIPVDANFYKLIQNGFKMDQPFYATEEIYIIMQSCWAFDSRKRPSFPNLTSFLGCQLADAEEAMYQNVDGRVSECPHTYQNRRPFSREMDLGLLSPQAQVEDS
UniProt Q9Y616: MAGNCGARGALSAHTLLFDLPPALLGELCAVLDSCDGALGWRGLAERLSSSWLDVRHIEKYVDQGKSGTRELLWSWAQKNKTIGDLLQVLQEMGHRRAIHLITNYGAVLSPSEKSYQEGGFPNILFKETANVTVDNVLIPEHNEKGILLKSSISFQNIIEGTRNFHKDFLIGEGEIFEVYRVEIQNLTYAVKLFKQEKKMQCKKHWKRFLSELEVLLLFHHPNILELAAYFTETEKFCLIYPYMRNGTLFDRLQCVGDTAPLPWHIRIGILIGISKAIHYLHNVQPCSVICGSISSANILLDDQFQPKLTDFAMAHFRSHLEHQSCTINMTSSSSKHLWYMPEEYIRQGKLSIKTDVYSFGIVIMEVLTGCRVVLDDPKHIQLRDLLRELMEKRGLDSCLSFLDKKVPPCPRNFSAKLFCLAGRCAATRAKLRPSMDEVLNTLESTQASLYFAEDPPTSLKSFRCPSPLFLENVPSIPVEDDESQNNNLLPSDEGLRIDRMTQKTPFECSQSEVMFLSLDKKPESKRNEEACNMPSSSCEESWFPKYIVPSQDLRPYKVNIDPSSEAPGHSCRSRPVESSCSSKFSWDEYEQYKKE
UniProt P23458: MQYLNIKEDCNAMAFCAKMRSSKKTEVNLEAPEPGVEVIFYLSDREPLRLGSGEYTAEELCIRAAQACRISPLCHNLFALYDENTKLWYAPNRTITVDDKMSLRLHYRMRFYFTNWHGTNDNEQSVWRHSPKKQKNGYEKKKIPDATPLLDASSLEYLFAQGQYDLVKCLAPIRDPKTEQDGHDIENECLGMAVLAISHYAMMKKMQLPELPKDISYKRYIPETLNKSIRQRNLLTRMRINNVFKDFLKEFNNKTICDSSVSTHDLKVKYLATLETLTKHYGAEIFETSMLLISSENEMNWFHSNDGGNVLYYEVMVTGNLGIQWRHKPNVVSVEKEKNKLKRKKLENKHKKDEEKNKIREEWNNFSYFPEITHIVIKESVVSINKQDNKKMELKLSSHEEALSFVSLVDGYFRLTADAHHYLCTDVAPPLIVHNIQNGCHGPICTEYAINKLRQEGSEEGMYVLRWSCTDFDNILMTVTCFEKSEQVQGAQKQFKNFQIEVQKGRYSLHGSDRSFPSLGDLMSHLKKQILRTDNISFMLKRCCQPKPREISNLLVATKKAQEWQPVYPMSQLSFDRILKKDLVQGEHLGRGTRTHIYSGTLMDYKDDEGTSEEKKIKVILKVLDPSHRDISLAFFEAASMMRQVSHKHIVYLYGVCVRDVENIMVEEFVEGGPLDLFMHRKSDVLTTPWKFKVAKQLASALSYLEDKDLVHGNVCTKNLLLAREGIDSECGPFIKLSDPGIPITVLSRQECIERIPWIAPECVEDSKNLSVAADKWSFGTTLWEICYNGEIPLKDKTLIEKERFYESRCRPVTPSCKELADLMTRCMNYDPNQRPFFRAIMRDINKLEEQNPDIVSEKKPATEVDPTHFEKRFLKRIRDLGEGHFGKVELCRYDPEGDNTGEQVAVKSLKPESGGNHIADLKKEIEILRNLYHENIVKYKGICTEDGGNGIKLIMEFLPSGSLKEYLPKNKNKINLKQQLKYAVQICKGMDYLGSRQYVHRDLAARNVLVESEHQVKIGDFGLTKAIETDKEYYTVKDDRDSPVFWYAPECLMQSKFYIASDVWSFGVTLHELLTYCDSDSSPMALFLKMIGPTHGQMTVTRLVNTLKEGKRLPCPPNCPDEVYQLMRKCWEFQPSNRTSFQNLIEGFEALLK
UniProt P53671: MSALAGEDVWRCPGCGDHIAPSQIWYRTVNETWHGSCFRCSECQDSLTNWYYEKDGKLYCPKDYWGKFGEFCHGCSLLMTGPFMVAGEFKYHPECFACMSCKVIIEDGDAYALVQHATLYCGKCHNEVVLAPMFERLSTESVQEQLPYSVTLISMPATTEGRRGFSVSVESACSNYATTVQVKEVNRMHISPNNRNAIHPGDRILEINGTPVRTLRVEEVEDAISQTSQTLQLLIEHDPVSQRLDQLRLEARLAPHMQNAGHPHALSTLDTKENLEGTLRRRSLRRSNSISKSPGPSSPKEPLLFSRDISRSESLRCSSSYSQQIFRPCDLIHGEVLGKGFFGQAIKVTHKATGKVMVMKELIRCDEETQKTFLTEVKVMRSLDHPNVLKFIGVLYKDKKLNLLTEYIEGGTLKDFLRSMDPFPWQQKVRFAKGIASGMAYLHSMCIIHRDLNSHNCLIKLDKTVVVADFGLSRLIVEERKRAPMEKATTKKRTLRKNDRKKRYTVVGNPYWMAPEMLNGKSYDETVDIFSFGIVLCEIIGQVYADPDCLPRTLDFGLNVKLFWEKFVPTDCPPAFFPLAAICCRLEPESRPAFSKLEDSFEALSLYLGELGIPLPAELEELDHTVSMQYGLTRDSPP
UniProt P07948: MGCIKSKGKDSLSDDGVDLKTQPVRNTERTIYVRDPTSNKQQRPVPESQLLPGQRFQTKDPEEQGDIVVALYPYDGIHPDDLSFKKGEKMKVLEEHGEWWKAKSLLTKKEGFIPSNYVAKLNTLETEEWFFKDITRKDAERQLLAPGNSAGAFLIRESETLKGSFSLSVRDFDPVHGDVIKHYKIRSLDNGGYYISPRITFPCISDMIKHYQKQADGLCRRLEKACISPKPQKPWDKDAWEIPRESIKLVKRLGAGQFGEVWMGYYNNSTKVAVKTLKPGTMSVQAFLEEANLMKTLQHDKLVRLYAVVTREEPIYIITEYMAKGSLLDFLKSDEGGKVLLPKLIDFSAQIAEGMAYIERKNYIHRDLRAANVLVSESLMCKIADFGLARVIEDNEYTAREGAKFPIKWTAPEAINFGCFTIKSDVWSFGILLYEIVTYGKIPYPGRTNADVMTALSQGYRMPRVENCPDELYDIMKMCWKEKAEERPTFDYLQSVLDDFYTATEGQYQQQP
UniProt Q12851: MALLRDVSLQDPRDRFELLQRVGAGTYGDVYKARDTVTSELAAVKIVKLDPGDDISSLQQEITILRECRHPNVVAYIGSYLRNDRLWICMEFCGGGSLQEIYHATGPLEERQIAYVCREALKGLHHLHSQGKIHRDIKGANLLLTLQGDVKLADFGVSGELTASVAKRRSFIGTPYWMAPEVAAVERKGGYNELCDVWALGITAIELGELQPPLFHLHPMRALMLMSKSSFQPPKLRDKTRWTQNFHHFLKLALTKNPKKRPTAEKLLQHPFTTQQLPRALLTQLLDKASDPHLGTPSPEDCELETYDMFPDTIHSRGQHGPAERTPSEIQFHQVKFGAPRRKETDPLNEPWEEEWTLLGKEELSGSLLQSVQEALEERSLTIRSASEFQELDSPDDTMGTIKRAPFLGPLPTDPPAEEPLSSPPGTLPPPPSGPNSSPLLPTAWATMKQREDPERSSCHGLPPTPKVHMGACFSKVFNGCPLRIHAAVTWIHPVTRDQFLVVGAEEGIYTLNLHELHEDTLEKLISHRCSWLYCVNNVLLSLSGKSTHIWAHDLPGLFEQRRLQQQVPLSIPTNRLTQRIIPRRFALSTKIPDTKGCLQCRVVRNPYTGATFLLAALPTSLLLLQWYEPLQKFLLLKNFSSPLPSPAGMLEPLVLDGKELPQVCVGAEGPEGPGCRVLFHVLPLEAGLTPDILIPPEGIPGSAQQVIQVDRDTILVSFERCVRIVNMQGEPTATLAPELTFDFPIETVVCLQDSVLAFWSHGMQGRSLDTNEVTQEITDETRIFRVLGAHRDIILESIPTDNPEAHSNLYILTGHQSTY
UniProt P28482, whole entry: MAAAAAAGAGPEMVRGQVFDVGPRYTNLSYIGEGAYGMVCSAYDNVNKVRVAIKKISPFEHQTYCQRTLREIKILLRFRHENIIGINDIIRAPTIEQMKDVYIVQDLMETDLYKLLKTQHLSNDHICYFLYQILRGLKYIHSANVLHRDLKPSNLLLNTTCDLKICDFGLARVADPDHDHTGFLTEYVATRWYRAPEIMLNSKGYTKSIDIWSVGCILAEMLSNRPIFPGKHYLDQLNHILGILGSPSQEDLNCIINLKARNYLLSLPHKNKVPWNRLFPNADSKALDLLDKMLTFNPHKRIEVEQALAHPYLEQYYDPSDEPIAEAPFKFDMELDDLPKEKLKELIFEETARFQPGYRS
UniProt P49137, whole entry, looked up: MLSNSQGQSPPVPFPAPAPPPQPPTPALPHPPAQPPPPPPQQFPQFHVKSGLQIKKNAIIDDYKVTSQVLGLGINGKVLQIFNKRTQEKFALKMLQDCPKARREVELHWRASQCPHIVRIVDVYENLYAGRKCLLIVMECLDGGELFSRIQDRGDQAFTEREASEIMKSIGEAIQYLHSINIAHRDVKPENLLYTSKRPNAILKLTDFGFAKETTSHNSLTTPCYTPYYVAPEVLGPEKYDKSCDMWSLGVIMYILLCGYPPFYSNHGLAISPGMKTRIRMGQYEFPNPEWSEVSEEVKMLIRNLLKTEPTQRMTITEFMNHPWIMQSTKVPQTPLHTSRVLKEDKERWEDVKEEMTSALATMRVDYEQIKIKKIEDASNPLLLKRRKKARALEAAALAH
UniProt Q16620, whole entry, looked up: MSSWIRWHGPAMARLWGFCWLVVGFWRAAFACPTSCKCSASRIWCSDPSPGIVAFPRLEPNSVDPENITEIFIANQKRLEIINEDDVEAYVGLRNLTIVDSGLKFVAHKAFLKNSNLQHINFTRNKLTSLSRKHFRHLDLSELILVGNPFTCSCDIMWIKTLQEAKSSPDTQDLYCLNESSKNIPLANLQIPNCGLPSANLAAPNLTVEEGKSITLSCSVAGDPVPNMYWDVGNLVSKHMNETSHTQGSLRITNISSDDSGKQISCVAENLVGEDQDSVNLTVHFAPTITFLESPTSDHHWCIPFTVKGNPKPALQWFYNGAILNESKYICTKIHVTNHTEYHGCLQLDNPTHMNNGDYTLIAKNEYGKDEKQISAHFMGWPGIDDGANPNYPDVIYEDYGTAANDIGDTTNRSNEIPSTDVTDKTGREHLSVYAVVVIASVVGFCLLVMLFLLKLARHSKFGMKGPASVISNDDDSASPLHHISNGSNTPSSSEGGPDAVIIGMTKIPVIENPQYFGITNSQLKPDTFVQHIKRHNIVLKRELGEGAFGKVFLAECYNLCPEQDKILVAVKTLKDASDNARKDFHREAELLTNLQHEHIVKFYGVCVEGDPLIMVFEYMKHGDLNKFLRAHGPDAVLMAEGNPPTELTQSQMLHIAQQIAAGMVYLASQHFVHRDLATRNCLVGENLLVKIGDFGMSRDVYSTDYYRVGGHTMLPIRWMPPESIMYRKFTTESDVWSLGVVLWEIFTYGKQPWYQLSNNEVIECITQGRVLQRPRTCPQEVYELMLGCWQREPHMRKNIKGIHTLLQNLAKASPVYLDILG

Experiments:
Assay in all cases: number of time points (of 5) at which kinase-Nluc abundance scored as decreased, DMSO-normalised (count); higher = more persistent destabilization
Settings in all cases: K562; 2-18 h
[1] = molecular target: FLT3 (UniProt P36888)
[2] = molecular target: FYN (UniProt P06241)
[3] = molecular target: GSK3A (UniProt P49840)
[4] = molecular target: HER2 (UniProt P04626)
[5] = molecular target: INSRR (UniProt P14616)
[6] = molecular target: IRAK3 (UniProt Q9Y616)
[7] = molecular target: JAK1 (UniProt P23458)
[8] = molecular target: LCK (UniProt P06239)
[9] = molecular target: LIMK1 (UniProt P53667)
[10] = molecular target: LIMK2 (UniProt P53671)
[11] = molecular target: LMTK2 (UniProt Q8IWU2)
[12] = molecular target: LYN (UniProt P07948)
[13] = molecular target: MAP2K1 (UniProt Q02750)
[14] = molecular target: MAP2K2 (UniProt P36507)
[15] = molecular target: MAP4K2 (UniProt Q12851)
[16] = molecular target: MAPK1 (UniProt P28482)
[17] = molecular target: MAPK4 (UniProt P31152)
[18] = molecular target: MAPKAPK2 (UniProt P49137)
[19] = molecular target: MKNK1 (UniProt Q9BUB5)
[20] = molecular target: NTRK2 (UniProt Q16620)

Measured: number of time points

CNC(=O)c1ccc(-c2cnc3cnc(C(=O)N(C)c4ccc(Cl)cc4)cn23)cc1 (2.5 µM)
0: all assays above

C=CC(=O)Nc1cccc(C)c1Nc1ncc2cc(-c3c(Cl)c(OC)cc(OC)c3Cl)ccc2n1 (2.5 µM)
2: [2]
0: all other assays above

COCCO[C@@H]1[C@H](O)[C@@H](CO)O[C@H]1n1cnc2c(=O)[nH]c(N)nc21 [2′-O-(2-Methoxyethyl)guanosine] (10 µM)
0: all assays above

Cc1ccc(S(=O)(=O)/C=C/C#N)cc1 (10 µM)
2: [4] | [20]
0: all other assays above

O=C(O)c1cc(O)ccc1O [2,5-Dihydroxybenzoic acid] (10 µM)
0: all assays above

c1cc2c(cc1O[C@H]1OC[C@H]3[C@@H]1CO[C@@H]3c1ccc3c(c1)OCO3)OCO2 [Sesamolin] (10 µM)
0: all assays above

COCCOc1cnc(Sc2cc(C)c(-c3csc(NC(=O)c4ccncc4)n3)c(C)c2)cn1 [T-1101 (tosylate)] (2.5 µM)
2: [2] | [11]
0: all other assays above

CN1CCN(c2ccc(C(=O)Nc3cc(-c4cccc(NS(=O)(=O)c5ccccc5)c4)[nH]n3)cc2)CC1 [BPR1J-097 Hydrochloride] (2.5 µM)
1: [11] | [19]
0: all other assays above

Cn1nccc1Nc1nccc(-c2cc3c(s2)C(C)(C)N(CCN2CCOCC2)C3=O)n1 (10 µM)
0: all assays above

CN(C)CCN(Cc1ccc(Cl)cc1)c1ccccn1 [Chloropyramine hydrochloride] (10 µM)
0: all assays above

CC(C)(NS(=O)(=O)c1ccc2c(Cl)cnc(N=C(N)N)c2c1)C(=O)O (10 µM)
0: all assays above

CC[C@@]1(c2ccccc2)C2=C(CC(C)(C)CC2=O)Nc2[nH]ncc21 (10 µM)
0: all assays above

CCn1c(C(=O)N(C2CC2)C2CC2)cc2c3c(ncn3C)c(Nc3cc(C)n(C)n3)nc21 (10 µM)
0: all assays above

Cc1cc(NC(=O)c2cccc(NC(=O)/C=C/CN(C)C)c2)ccc1Nc1nccc(-c2cccnc2)n1 (10 µM)
1: [10]
2: [12]
0: all other assays above

Cc1ccc(Oc2nc3cc(-c4ccc5c(ccn5C)c4)c(Cl)cc3[nH]2)cc1C(=O)O (10 µM)
0: all assays above

C=CC(=O)Nc1ccc(CN(C(=O)Nc2c(Cl)c(OC)cc(OC)c2Cl)c2cc(Nc3ccc(N4CCN(C)CC4)cc3)ncn2)cc1 (10 µM)
0: all assays above

O=C(/C=C/c1ccc(O[C@@H]2O[C@H](CO)[C@@H](O)[C@H](O)[C@H]2O[C@@H]2OC[C@](O)(CO)[C@H]2O)cc1)c1ccc(O)cc1O [Isoliquiritin apioside] (10 µM)
0: all assays above

CC(=O)N1CCN(c2cc(-c3cc(C(F)(F)F)c4c(N)ncnn34)ccc2C#N)C(=O)C1(C)C (10 µM)
0: all assays above

O=C(O)CCc1ccc(O)c(O)c1 [Dihydrocaffeic acid] (10 µM)
1: [16]
0: all other assays above

O=C(NCCCNC(=O)Nc1cccc(C2=NCCN2)c1)Nc1cccc(C2=NCCN2)c1 [p32 Inhibitor M36] (10 µM)
0: all assays above

COc1cc(N2CCN(C)CC2)ccc1Nc1ncc2c(n1)N(C1CCC1)C(=O)N(c1c(C)cccc1C)C2 (2.5 µM)
0: all assays above

Ordered by count of non-hydrogen atoms (low to high): some entries from above.
O=C(O)CCc1ccc(O)c(O)c1 [Dihydrocaffeic acid] (10 µM)
1: [16]
0: all other assays above

CC(=O)N1CCN(c2cc(-c3cc(C(F)(F)F)c4c(N)ncnn34)ccc2C#N)C(=O)C1(C)C (10 µM)
0: all assays above

O=C(/C=C/c1ccc(O[C@@H]2O[C@H](CO)[C@@H](O)[C@H](O)[C@H]2O[C@@H]2OC[C@](O)(CO)[C@H]2O)cc1)c1ccc(O)cc1O [Isoliquiritin apioside] (10 µM)
0: all assays above

The listing continues.

O=C(Nc1nc2ccccc2[nH]1)c1cccc(-n2cccc2)c1 (10 µM)
0: all assays above
